PubChem BioAssay AID652243 – Drosophila RNAi Screening Center | 2013
Screen: 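Fly regulators of androgen-dependent reporter output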 (primary screen). Cells: Drosophila S2R+ cells. Reagents: long dsRNA against Drosophila genes. Timing: 72 h (48 h, then 24 h hormone). Treatment: synthetic androgen R1881 at 10 nM for 24 h. Read-out: 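Per-well raw luminescence of the androgen-driven firefly reporter and of the Renilla control, two replicates each, without normalisation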. Reading the numbers: firefly reporter light: higher = more light from androgen-responsive reporter; Renilla control light: higher = more constitutive control signal (cell number, transfection). Call rule: 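Hit when the log firefly-to-Renilla ratio dropped or increased by a fixed fold versus the mean of GFP or LacZ controls across duplicate plates; lowering cut given as 1.5 and as 3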. Meaning of the calls: active = hit: reporter lowered or raised; inactive = no hit.
In all, the deposit lists about 24,000 reagents; shown is an unselected part of those with a known target gene and a result. Of all reagents, 246 (1%) were called active. 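Plates not normalised; calls are printed but the firefly/Renilla ratio behind them is not deposited; fold cut for lowering reported inconsistently.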 Raw values vary from plate to plate and are shown uncorrected. Names joined by + are all predicted targets of the reagent. Not stated in the record: the amount of reagent.

Target gene | PubChem SID | firefly reporter light, replicate 1 | firefly reporter light, replicate 2 | Renilla control light, replicate 1 | Renilla control light, replicate 2 | outcome
Tsp29Fa (Tetraspanin 29Fa) | SID104183024 | 1.90e5 | 2.04e5 | 1.71e6 | 1.53e6 | inactive
Tsp29Fa (Tetraspanin 29Fa) | SID104207066 | 3.79e5 | 6.98e5 | 9.52e5 | 1.82e6 | inactive
CG15142 | SID104182235 | 1.40e5 | 94000 | 1.61e6 | 1.08e6 | inactive
CG7289 | SID104180489 | 9.71e5 | 1.15e6 | 2.52e6 | 2.25e6 | inactive
ymp (yellow-emperor) | SID104193512 | 4.85e5 | 5.59e5 | 6.09e5 | 9.38e5 | inactive
ymp (yellow-emperor) | SID104194274 | 2.02e5 | 2.69e5 | 2.49e6 | 2.26e6 | inactive
CG33128 | SID104180086 | 4.35e5 | 6.71e5 | 1.33e6 | 2.00e6 | inactive
CG33128 | SID104207242 | 3.60e5 | 3.32e5 | 1.17e6 | 1.34e6 | inactive
CG32243 | SID104187897 | 84285 | 1.64e5 | 2.04e5 | 3.71e5 | inactive
Dp (DP transcription factor) | SID104187194 | 4.82e5 | 4.97e5 | 2.17e6 | 2.34e6 | active
CG18094 | SID104182447 | 99705 | 1.04e5 | 1.24e6 | 1.30e6 | inactive
Spn75F (Serpin 75F) | SID104189381 | 1.51e5 | 1.52e5 | 3.03e5 | 3.39e5 | inactive
CG30183 | SID104184242 | 1.60e5 | 2.09e5 | 1.38e6 | 1.30e6 | inactive
CG30183 | SID104184264 | 1.86e5 | 1.22e5 | 1.29e6 | 1.02e6 | inactive
Ca-alpha1T (Ca[2+]-channel protein alpha[[1]] subunit T) | SID104197634 | 2.58e5 | 1.50e5 | 3.11e6 | 2.13e6 | inactive
Ca-alpha1T (Ca[2+]-channel protein alpha[[1]] subunit T) | SID104197895 | 2.79e5 | 2.14e5 | 2.32e6 | 1.84e6 | inactive
Ca-alpha1T (Ca[2+]-channel protein alpha[[1]] subunit T) | SID104198148 | 1.13e5 | 2.42e5 | 2.03e6 | 1.75e6 | inactive
Ca-alpha1T (Ca[2+]-channel protein alpha[[1]] subunit T) | SID104198149 | 4.27e5 | 4.31e5 | 2.43e6 | 2.89e6 | inactive
Ca-alpha1T (Ca[2+]-channel protein alpha[[1]] subunit T) | SID104201177 | 6.38e5 | 6.48e5 | 2.61e6 | 2.51e6 | inactive
lncRNA:noe (long non-coding RNA:noe) | SID104202119 | 4.26e5 | 6.70e5 | 9.30e5 | 1.01e6 | inactive
lncRNA:noe (long non-coding RNA:noe) | SID104203047 | 4.10e5 | 4.37e5 | 3.77e5 | 3.21e5 | inactive
CG14374 | SID104194626 | 1.49e5 | 71551 | 1.66e6 | 1.44e6 | inactive
Syx1A (Syntaxin 1A) | SID104195151 | 83401 | 78297 | 1.41e6 | 2.16e6 | inactive
Syx1A (Syntaxin 1A) | SID104201269 | 6.45e5 | 6.71e5 | 1.99e6 | 1.76e6 | inactive
CG1647 | SID104194926 | 50984 | 47499 | 4.51e5 | 3.79e5 | inactive
Mi-2 | SID104191014 | 2.17e5 | 2.16e5 | 2.29e6 | 2.53e6 | inactive
Mi-2 | SID104203601 | 3.00e5 | 3.68e5 | 3.91e5 | 3.94e5 | inactive
CG8916 | SID104199912 | 5.96e5 | 5.95e5 | 2.73e6 | 2.27e6 | inactive
rin (rasputin) | SID104202354 | 6.07e5 | 8.00e5 | 1.30e6 | 1.34e6 | inactive
mod(mdg4) + pre-mod(mdg4)-U | SID104193268 | 2.48e5 | 2.24e5 | 4.73e5 | 5.99e5 | inactive
CG2852 | SID104184113 | 2.48e5 | 3.80e5 | 2.01e6 | 1.42e6 | inactive
CG2852 | SID104206500 | 7.51e5 | 4.03e5 | 2.80e6 | 1.94e6 | inactive
Prim1 (DNA primase subunit 1) | SID104190929 | 1.63e5 | 1.61e5 | 2.12e6 | 1.88e6 | inactive
PpD5 (Protein phosphatase D5) | SID104184433 | 2.78e5 | 3.78e5 | 1.63e6 | 1.50e6 | inactive
PpD5 (Protein phosphatase D5) | SID104202669 | 7.23e5 | 7.41e5 | 1.85e6 | 1.69e6 | inactive
ProtA (Protamine A) | SID104183164 | 1.35e5 | 1.81e5 | 1.75e6 | 2.11e6 | inactive
CG13039 | SID104189712 | 2.86e5 | 2.98e5 | 2.82e6 | 2.79e6 | inactive
CG1161 | SID104203502 | 1.05e6 | 9.38e5 | 1.01e6 | 1.10e6 | inactive
Acf (ATP-dependent chromatin assembly factor large subunit) | SID104193893 | 79984 | 42115 | 5.26e5 | 3.45e5 | inactive
Acf (ATP-dependent chromatin assembly factor large subunit) | SID104208341 | 4.63e5 | 4.64e5 | 1.42e6 | 1.45e6 | inactive
Swim (Secreted Wg-interacting molecule) | SID104184126 | 1.04e6 | 5.36e5 | 2.33e6 | 1.20e6 | inactive
mRpL39 (mitochondrial ribosomal protein L39) | SID104190047 | 1.92e5 | 1.87e5 | 1.68e6 | 1.44e6 | inactive
CG6753 | SID104195900 | 98561 | 1.16e5 | 1.72e6 | 1.17e6 | inactive
CG6753 | SID104206993 | 4.03e5 | 4.29e5 | 3.90e5 | 7.93e5 | inactive
Flo2 (Flotillin 2) | SID104198854 | 4.84e5 | 3.96e5 | 2.68e5 | 1.62e5 | inactive
Flo2 (Flotillin 2) | SID104200036 | 5.87e5 | 3.68e5 | 4.33e6 | 3.97e6 | inactive
CG8100 | SID104190753 | 1.73e5 | 1.74e5 | 1.58e6 | 1.30e6 | inactive
CG10183 | SID104193995 | 1.86e5 | 2.86e5 | 2.55e6 | 2.64e6 | inactive
CG10183 | SID104203889 | 1.22e6 | 1.23e6 | 9.69e5 | 9.75e5 | inactive
CG18661 | SID104182482 | 1.10e5 | 1.52e5 | 1.16e6 | 9.37e5 | inactive
AP-1mu (Adaptor Protein complex 1, mu subunit) | SID104193881 | 56804 | 74063 | 3.70e5 | 5.60e5 | inactive
AP-1mu (Adaptor Protein complex 1, mu subunit) | SID104204288 | 8.33e5 | 6.89e5 | 9.35e5 | 1.03e6 | inactive
CG43367 | SID104188091 | 2.82e5 | 1.97e5 | 2.72e6 | 2.07e6 | inactive
CG43367 | SID104188093 | 1.05e5 | 92585 | 1.12e6 | 1.17e6 | inactive
CG43367 | SID104188101 | 3.28e5 | 3.80e5 | 2.62e6 | 2.12e6 | inactive
CG43367 | SID104203366 | 7.91e5 | 8.50e5 | 1.14e6 | 1.16e6 | inactive
RtGEF (Rho-type guanine nucleotide exchange factor) | SID104183396 | 69540 | 78481 | 7.04e5 | 5.60e5 | inactive
RtGEF (Rho-type guanine nucleotide exchange factor) | SID104201743 | 7.09e5 | 7.15e5 | 1.91e6 | 1.93e6 | inactive

Limited to “Renilla control light, replicate 2”, for 7 of the entries above:
CG8916 [SID104199912] = 2.27e6
rin (rasputin) [SID104202354] = 1.34e6
mod(mdg4) + pre-mod(mdg4)-U [SID104193268] = 5.99e5
CG2852 [SID104184113] = 1.42e6
CG2852 [SID104206500] = 1.94e6
Prim1 (DNA primase subunit 1) [SID104190929] = 1.88e6
PpD5 (Protein phosphatase D5) [SID104184433] = 1.50e6
